PubChem BioAssay AID1259254, NCATS, 2017
Here is one part, drawn at random, of about 59,000 reagents tested. About 1,550 of them (2.6%) count as active. 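G2 share is only a proxy for re-replication; each gene was hit by three separate siRNAs, and active genes were retested.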 Raw values vary from plate to plate and are shown uncorrected. Reagents against one gene are numbered here. Not stated in the record: the amount of reagent.

Aim: 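Finding genes that stop cells copying their DNA twice in one cycle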 (primary screen)
System: human HCT116 colorectal cancer cells
Knock-down reagent: single siRNA against human genes
Time to read-out: 3 days
Detection: 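Nuclei stained with Hoechst and imaged; cell-cycle phase assigned by DNA content; G2 share scaled per plate, non-targeting siRNA 0%, GMNN siRNA 100%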
Reading the numbers: G2 robust z-score and G2 cells, % of GMNN control: higher = more G2 cells, more excess DNA replication; raw share of cells in G2: higher = larger share of cells with G2 DNA content
Call rule: 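Active siRNAs have a G2 robust z of 5 or more median absolute deviations over the median, which in these data means about 38% or higher of GMNN control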

target	reagent	G2 robust z-score	G2 cells, % of GMNN control	raw share of cells in G2 (%)	Outcome
DUSP12	1	-0.691	-1.89	4.18	inactive
DUSP12	2	-0.587	-1.16	3.95	inactive
DUSP12	3	0.433	6.01	5.31	inactive
OR56A1	1	0.18	4.23	5.79	inactive
OR56A1	2	0.511	6.56	5.29	inactive
OR56A1	3	-0.325	0.683	2.02	inactive
TIMP2	1	-1.07	-4.56	3.63	inactive
TIMP2	2	-1.12	-4.94	2.45	inactive
TIMP2	3	-0.57	-1.04	4.43	inactive
PHF2	1	-0.417	0.0361	4.99	inactive
PHF2	2	3.94	30.7	16.3	inactive
PHF2	3	-0.982	-3.94	1.93	inactive
TMEM26	1	-0.406	0.114	3.23	inactive
TMEM26	2	1.29	12	7.93	inactive
TMEM26	3	-0.0518	2.6	4.02	inactive
HINT1	1	-0.128	2.07	5.47	inactive
HINT1	2	0.956	9.69	7.22	inactive
HINT1	3	-1.48	-7.47	1.25	inactive
IL18BP	1	-0.534	-0.79	4.97	inactive
IL18BP	2	0.04	3.25	5.3	inactive
IL18BP	3	2.9	23.4	11.9	inactive
SSC4D	1	0.624	7.36	7.79	inactive
SSC4D	2	-1.51	-7.65	2.31	inactive
SSC4D	3	9.52	69.9	30.3	active
FAM114A2	1	8.57	63.3	29.8	active
FAM114A2	2	0.222	4.53	6.01	inactive
FAM114A2	3	-0.836	-2.91	2.08	inactive
HIVEP2	1	1	10	8.68	inactive
HIVEP2	2	-1.14	-5.02	3.77	inactive
HIVEP2	3	-0.479	-0.405	4.05	inactive
